In patent US20110183942A1, “Methods and Compositions for Treating Alzheimer's Disease” (UNIVERSITY OF MEDICINE AND DENTISTRY OF NEW JERSEY, priority 2008, published 2011):
At least one compound was matched to its structure with a doubt left.

Tested on: Arc mRNA in cultured neurons
Assay: Real-time RT-PCR of Arc mRNA
Type: cell-based
Conditions: BDNF 10 ng/ml at 40 min; forskolin 50 μM at 20 min; DHPG at 20 and 40 min after stimulation
Description: RNA samples from neuronal cultures were prepared using the PARIS kit (Ambion) according to the manufacturer's protocol. Following RNA extraction, samples were treated with DNase to remove contaminating DNA prior to cDNA synthesis. Total RNA was reverse transcribed using the SuperScript II First Strand Synthesis System for RT-PCR (Invitrogen) according to the manufacturer's protocol. A negative control without reverse transcriptase was included.
Primer specificity was verified by melt curve analysis. PCR amplification of cDNA was performed using the BioRad iCycler Real-Time Detection System (BioRad Laboratories). cDNA (1 μl) was added to 24 μl of 1× reaction master mix (3 mM MgCl2, KCl, Tris-HCl, iTaq DNA polymerase, 25 units/ml SYBR Green 1, 0.2 mM each dNTPs, 10 nM fluorescein and 500 nM each gene specific primers). […]
GAPDH was used to normalize data. The threshold for detection of PCR product above background was set at 10× the standard deviation of the mean background fluorescence for all reactions. Background fluorescence was determined from cycles 1-5 prior to the exponential amplification of product and subtracted from the raw fluorescence of each reaction/cycle. […] Threshold cycle (CT; number of cycles to reach threshold of detection) was determined for each reaction.
Relative gene expression was determined using the 2^−ΔΔCT method (Livak, et al., Methods 25, 402-408 (2001)). […]

SMILES: C=C[C@@]1(C)CC(=O)[C@]2(O)[C@@]3(C)[C@@H](O)CCC(C)(C)[C@@H]3[C@H](O)[C@H](OC(C)=O)[C@@]2(C)O1 [forskolin]
- level of Arc mRNA: induced the level of Arc mRNA
